Data as given in PubChem BioAssay AID504791 (Drosophila RNAi Screening Center, 2011).

- Aim: 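Genes of the fly required for silencing by miRNA, siRNA or endo-siRNA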 (primary screen)
- System: Drosophila S2-derived reporter cells
- Reagent: long dsRNA against Drosophila genes, about 150-250 ng dsRNA per well (siRNA assay); about 80-120 ng (miRNA assay)
- Time to read-out: about 5 days (siRNA assay); about 4 days (miRNA assay)
- Conditions: copper sulfate induction of reporters: 25 µM (siRNA assay); 200 mM stated (miRNA assay), 1-2 days before reading
- Detection: 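Dual luciferase assay: Renilla to firefly signal ratio in each well, scaled to the mean ratio of its plate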
- Hit rule: 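First-pass picks had plate-scaled ratios over 1.5 for the siRNA assay, over 1.6 for the miRNA assay, or under 0.6; two distinct dsRNAs had to score alike on retest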
The deposit covers about 23,000 reagents; below is an unselected part of those with a known target gene and a result. Of all reagents, 199 (0.86%) got an active call. 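Plate-scaled ratios behind the calls are not deposited; printed light signals are raw; many rows marked increased or decreased are still called inactive.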 The numbers tell different reagents against one gene apart. No sequences are given here. Not given: the direction of the score.

predicted target	reagent	stable siRNA reporter change	miRNA reporter change	stable assay Renilla, run 1 (luminescence)	stable assay firefly, run 1 (luminescence)	Call
CG7745 (GeneID 36210)	1		reporter ratio lowered past the hit cutoff	6990	3.21e5	inactive
CG7745 (GeneID 36210)	2			4343	3.72e5	inactive
Arf4 (GeneID 43823)	1			4204	2.61e5	inactive
Muc91C (GeneID 42246)	1			6150	3.40e5	inactive
Muc91C (GeneID 42246)	2			9814	5.61e5	inactive
boss (GeneID 43146)	1			6551	3.28e5	inactive
CG14298 (GeneID 42259)	1			7585	5.30e5	inactive
CG16825 (GeneID 34739)	1			7498	4.99e5	inactive
cort (GeneID 33937)	1			4827	5.59e5	inactive
Rpn3 (GeneID 35176)	1			5147	2.13e5	inactive
sens (GeneID 45328)	1	reporter ratio raised past the hit cutoff		4687	2.10e5	inactive
sens (GeneID 45328)	2			6714	4.34e5	inactive
CG42582 (retired record) (GeneID 8673986)	1			4644	3.99e5	inactive
CG13606 (GeneID 42873)	1			6666	3.69e5	inactive
sowah (GeneID 39438)	1			5123	4.48e5	inactive
sowah (GeneID 39438)	2			8089	4.03e5	inactive
CG43102 (GeneID 42137)	1			4388	4.12e5	inactive
CG43102 (GeneID 42137)	2			7869	5.78e5	inactive
swa (GeneID 31580)	1			7294	3.07e5	inactive
CG10912 (GeneID 37059)	1			9270	3.90e5	inactive
GlyRS (GeneID 39644)	1			8124	2.70e5	inactive
Pop1 (GeneID 31475)	1			6750	5.19e5	inactive
CG3698 (GeneID 40298)	1			11038	4.63e5	inactive
Pka-C2 (GeneID 43644)	1			6620	3.96e5	inactive
Pka-C2 (GeneID 43644)	2			4239	3.79e5	inactive
grh (GeneID 37038)	1			4892	3.60e5	inactive
grh (GeneID 37038)	2			5820	3.63e5	inactive
grh (GeneID 37038)	3			8403	3.73e5	inactive
grh (GeneID 37038)	4			5282	3.75e5	inactive
CG12713 (GeneID 39724)	1			7191	2.74e5	inactive
CG7091 (GeneID 41590)	1			5371	4.34e5	inactive
CG7091 (GeneID 41590)	2			6718	4.85e5	inactive
SP1173 (GeneID 38744)	1			7787	4.38e5	inactive
Sec31 (GeneID 35877)	1			7283	3.71e5	inactive
Or85e (retired record) (GeneID 3772269)	1			7633	5.23e5	inactive
CG33914 (GeneID 3772464)	1			5478	4.76e5	inactive
Cp190 (GeneID 41848)	1			6383	3.36e5	inactive
exex (GeneID 38884)	1			6166	3.46e5	inactive
CG13962 (GeneID 35270)	1			7231	4.28e5	inactive
Ugalt (GeneID 31255)	1			7283	5.08e5	inactive
nsl1 (GeneID 41911)	1			18788	6.14e5	inactive
CG14852 (GeneID 41765)	1			6392	3.41e5	inactive
mRpS25 (GeneID 32395)	1			4666	4.20e5	inactive
CG7720 (GeneID 42257)	1			9291	5.63e5	inactive
CG7720 (GeneID 42257)	2			3943	4.46e5	inactive
CG3788 (GeneID 37644)	1			6699	3.59e5	inactive
EMC1 (GeneID 40933)	1			10669	6.24e5	inactive
CG14966 (GeneID 38390)	1			6867	5.45e5	inactive
CG14014 (GeneID 33784)	1			7235	5.42e5	inactive
CG43345 (GeneID 35387)	1			7755	9.35e5	inactive
Hml (GeneID 39529)	1			7016	4.68e5	inactive
ImpL2 (GeneID 38513)	1			7922	3.97e5	inactive
NT5E-2 (GeneID 246458)	1			8246	3.36e5	inactive
Ir94a (GeneID 318610)	1			3399	3.46e5	inactive
CG4631 (GeneID 34988)	1			5043	4.47e5	inactive
CG4631 (GeneID 34988)	2			9474	5.78e5	inactive
SPE (GeneID 42791)	1			8466	2.75e5	inactive
Cip4 (GeneID 38534)	1			6264	4.86e5	inactive
Cip4 (GeneID 38534)	2			7107	3.32e5	inactive
Cip4 (GeneID 38534)	3			8867	5.24e5	inactive
CG4962 (GeneID 39793)	1			7630	4.51e5	inactive
esc (GeneID 34595)	1			18118	6.56e5	inactive
CG18789 (GeneID 317813)	1			7956	4.58e5	inactive
Rab5 (GeneID 33418)	1			13460	3.07e5	inactive
bdg (GeneID 36747)	1			8205	2.64e5	inactive
hwt (GeneID 32202)	1			4223	3.68e5	inactive
CG7810 (GeneID 34139)	1			35238	4.62e5	inactive
CG9776 (GeneID 40546)	1			18754	5.37e5	inactive
CG3376 (GeneID 37884)	1			24441	2.03e6	inactive
Jhbp6 (GeneID 40479)	1			6380	3.23e5	inactive
Pi3K21B (GeneID 33203)	1			14529	8.58e5	inactive
Tbce (GeneID 35532)	1			11121	1.50e6	inactive
GAPcenA (GeneID 38945)	1			6088	3.48e5	inactive
Piezo (GeneID 34112)	1			3.14e5	3.91e5	inactive
MtnD (GeneID 326270)	1			2992	3.19e5	inactive
FucTD (GeneID 38164)	1			6451	3.75e5	inactive
Gasz (GeneID 35795)	1			7610	3.79e5	inactive
CG8777 (GeneID 35921)	1			8186	3.98e5	inactive
Eato (GeneID 34783)	1			1.20e5	1.46e6	inactive
Eato (GeneID 34783)	2			7592	3.86e5	inactive
Liprin-gamma (GeneID 37552)	1			2948	3.05e5	inactive
Efhc1.2 (GeneID 37284)	1			10669	3.92e5	inactive
fred (GeneID 33613)	1			7988	4.67e5	inactive
fred (GeneID 33613)	2			4328	4.27e5	inactive
fred (GeneID 33613)	3			8785	4.08e5	inactive
fred (GeneID 33613)	4			7411	3.52e5	inactive
fred (GeneID 33613)	5			8143	4.85e5	inactive
CG12129 (GeneID 36044)	1			8260	3.61e5	inactive
Mpcp2 (GeneID 39587)	1			5652	3.51e5	inactive
Su(var)2-10 (GeneID 35927)	1	reporter ratio lowered past the hit cutoff		7138	9.18e5	inactive
Su(var)2-10 (GeneID 35927)	2		reporter ratio lowered past the hit cutoff			inactive
CG5381 (GeneID 34389)	1			7962	4.42e5	inactive
sdk (GeneID 31017)	1			8347	5.22e5	inactive
Acp53C14b (GeneID 36873)	1			6232	3.02e5	inactive
XRCC1 (GeneID 31451)	1			7883	5.17e5	inactive
hth (GeneID 41273)	1			6651	3.87e5	inactive
otp (GeneID 37364)	1			7370	3.49e5	inactive
otp (GeneID 37364)	2			6526	3.26e5	inactive
Agpat2 (GeneID 34176)	1			48749	1.25e6	inactive
Or49b (GeneID 36413)	1			4683	2.56e5	inactive
Vajk2 (GeneID 34811)	1			7994	4.61e5	inactive
CG33337 (GeneID 2768678)	1			5586	3.67e5	inactive
CG4607 (GeneID 31653)	1			5227	2.59e5	inactive
Kdm4A (GeneID 35744)	1			7499	3.78e5	inactive
Sodq (GeneID 43133)	1			6918	3.82e5	inactive
tok (GeneID 42944)	1			11711	4.79e5	inactive

An excerpt from above, reduced to “stable assay firefly, run 1 (luminescence)”.
SP1173 (GeneID 38744)	4.38e5
Sec31 (GeneID 35877)	3.71e5
Or85e (retired record) (GeneID 3772269)	5.23e5
CG33914 (GeneID 3772464)	4.76e5
Cp190 (GeneID 41848)	3.36e5
exex (GeneID 38884)	3.46e5
CG13962 (GeneID 35270)	4.28e5
Ugalt (GeneID 31255)	5.08e5
nsl1 (GeneID 41911)	6.14e5
CG14852 (GeneID 41765)	3.41e5
